Test results reported in patent US20150362491A1, “METHODS AND ASSAYS RELATING TO RNF216” (THE GENERAL HOSPITAL CORPORATION, priority 2013, published 2015).
Some results were stated once for a whole list of compounds, not compound by compound.

System: zebrafish embryos
Experiment: zebrafish embryo morpholino knock-down and human mRNA rescue phenotyping
Format: in vivo
Details: 3 d.p.f., MO injected embryos
Experimental: Zebrafish Investigation. All experiments were carried out with the approval of the Institutional Animal Care and Use Committee. Morpholino oligos (MO) for silencing of zebrafish rnf216 and otud4 were injected either alone or with wild-type (WT) or mutant human mRNA for RNF216, OTUD4, or both.
Morpholino oligonucleotide design. Morpholino oligos were obtained from Gene Tools, LLC (Philomath, Oreg., USA). Reciprocal BLAST against the zebrafish genome identified a sole zebrafish ortholog of […] (ENSDARG00000087893, 59% similarity, 46% identity). The antisense MO used for the silencing of zebrafish rnf216 targeted the intron 5′ donor splice site of the gene: […] (SEQ ID NO: 7).
Similar to rnf216, a sole ortholog of the human transcript for OTUD4 was identified in zebrafish (73% similarity, 61% identity). […] The MO for otud4 targeted the donor splice site of intron 2: […] (SEQ ID NO: 8).
Zebrafish embryo injections. […]
Zebrafish embryo phenotyping. Injected embryos were scored at 3 days post fertilization for microphthalmia by measuring the area of the eye cup. […] For each test, 50-100 embryos were injected and scored by two investigators who were blind to the injection cocktail. All experiments were performed 2-3 times and statistical significance was calculated using Student's t-test.

Substance | embryos with severe acerebellar phenotype
rnf216 MO: antisense morpholino silencing zebrafish rnf216, donor splice site: CAGAAAATAGTTTGTGCTTACACAT (SEQ ID NO: 7) (all phosphorodiamidate morpholino (PMO)) | 5-10%
otud4 MO: splice-blocking morpholino against zebrafish otud4: TACCCGAAGGAATTTGCGCACCATT (SEQ ID NO: 8) (all phosphorodiamidate morpholino (PMO)) | 5-10%
